Measured data: PubChem BioAssay AID1671195 (Yale University, 2021)

- Purpose: 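Genes whose knockdown alters LDL uptake in liver cancer cells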 (primary screen)
- Cells: human Huh7 hepatoma cells
- Knock-down reagent: siRNA pool against human genes, 18 nM
- Duration: about 2 to 2.5 days of knockdown, then 8 h LDL uptake
- Challenge: DiI-labelled LDL at 30 µg/ml for 8 h, in lipoprotein-deficient serum medium
- Detection: 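Fluorescent LDL signal imaged in cells, scaled to the plate median, robust z-score for each replicate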
- Scale: robust z-score: higher = more LDL uptake after knockdown
- Rule for the call: 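Active when two or more replicates show a robust z-score above 2 or below -2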
In all, the deposit lists about 22,000 reagents; below is an unselected part. About 1,510 of them (6.9%) were called active. 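Active includes knockdowns raising or lowering LDL uptake; positive z-scores mean more uptake, negative mean less.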 Unmarked entries are inactive. The numbers tell different reagents against one gene apart.

Gene	reagent	robust z-score, replicate 1	robust z-score, replicate 2	robust z-score, replicate 3
NOS1AP	1	0.188	-0.375	0.163
TMEM9B	1	-1.62	-1.04	-0.662
RESP18	1	0.83	0.583	0.787
TIGD6	1	-0.775	-0.57	-0.725
FBXO41	1	-0.149	0.184	-1.14
APOA5	1	-0.675	-0.74	-0.811
VSTM1	1	-0.175	-0.248	-0.0374
ARRDC1	1	2.38	0.603	0.733
EPHA5	1	-0.459	-0.626	-1.26
MMP25	1	-0.719	-0.668	1.25
MMP25	2	-1.84	-1.26	-1.51
KATNAL2	1	-0.392	-0.192	-0.372
ERMAP	1	1.2	1.09	0.308
GSC2	1	2.17 (active)	2.21	2.63
OR6C76	1	-0.424	-0.0132	-0.894
LIX1L	1	-0.13	-0.275	0.565
LINC02902	1	0.00126	-0.787	0.000804
CDC42BPA	1	-0.836	-1.58	-0.395
HOXB9	1	0.0687	-0.245	0.549
LOC441766 (retired record)	1	-0.283	-0.639	-0.241
DOCK4	1	0.453	0.345	-0.983
PINLYP	1	-0.448	-0.417	-0.376
LOC440298 (retired record)	1	1.14	1.35	0.855
PLIN3	1	1.78	0.0681	0.498
LOC441348 (retired record)	1	0.221	-0.156	-0.244
CCDC174	1	0.601	0.743	0.367
ARF3	1	-0.396	1.91	0.849
GOLGA8IP	1	0.619	-0.0535	-0.573
SERPINA11	1	0.483	-0.52	0.429
FA2H	1	-0.63	-0.158	-1.03
ZNF212	1	-0.588	-0.188	-0.356
LINC00342	1	-0.534	-0.594	-1.34
NSD2	1	-1.12	-0.559	-1.16
CFAP20DC	1	-0.529	-0.736	-1.36
SLC30A7	1	1.16	0.696	0.13
GLRA2	1	-0.736	0.0674	-0.355
SIL1	1	-0.865	-0.667	-0.988
C10orf88	1	-1.12	-0.948	-0.963
LRRC42	1	-0.519	-0.0404	-0.268
NUP205	1	0.663	0.735	0.851
LRP2BP	1	-0.127	-1.02	-0.333
POU2AF3	1	-0.196	-0.211	-1.08
LOC339979 (retired record)	1	0.467	0.698	0.417
ZNF575	1	-2 (active)	-2.6	-2.74
NADK	1	0.75	-0.279	-0.149
GALNT2	1	-1.96	0.806	0.569
MYLK3	1	0.0808	0.304	0.35
GPR135	1	1.02	0.401	1.55
NECAB2	1	-0.306	-0.368	-1.41
ADRB2	1	2.31	1.52	1.46
MSL1	1	0.644	0.768	0.378
SSU72P1	1	-0.948	-0.975	-0.876
ATP5MC1P5	1	0.323	0.766	0.419
CTNNBIP1	1	-0.761	-1.12	-0.934
CDH12	1	-0.704	-1.03	-0.917
NPY1R	1	-1.07	-0.926	-0.469
MAPK13	1	-1.36	-0.927	-0.793
ENTREP3	1	0.285	-1.3	-0.222
ABCB8	1	0.516	-0.584	-0.0528
SLC7A6	1	-0.101	-0.569	0.46
PRDM10-DT	1	1.43	1.58	0.866
SRGAP2	1	1.35	1.05	1.11
SRGAP2	2	-0.8	-0.567	-0.57
STAMBP	1	0.109	-0.324	0.222
TIE1	1	-0.0811	-0.556	-0.672
KCNH4	1	-0.693	-1.52	-0.131
LOC389685 (retired record)	1	0.746	0.513	0.769
MEIS2	1	0.527	-0.667	0.612
CATIP	1	-0.465	-0.695	-0.432
FRMD4A	1	-1.96	-0.31	-0.859
LOC442508 (retired record)	1	1.1	0.349	-1.46
BCAP29	1	0.0372	0.358	-0.601
SSMEM1	1	0.228	0.115	-0.0895
LINC02875	1	-0.814	-0.981	-1.02
HCAR1	1	0.253	-1.26	-0.62
PGM5P1	1	0.228	0.773	0.734
FBXL20	1	-0.87	-0.051	-0.626
PEPD	1	1.06	1.75	1.73
XRCC1	1	0.599	0.845	1.17
MLLT10	1	1.18	1.87	0.443
ZNF232	1	2.99 (active)	1.98	2.13
LOC389070 (retired record)	1	-0.0235	-0.106	-0.2
POLR2I	1	-0.866	-1.43	-1.28
PSME2	1	0.0121	-0.21	-1.21
KCNJ14	1	0.123	-0.00479	0.565
GPAT2	1	0.0278	0.0846	-0.976
CLPS	1	1.98 (active)	2.27	2.17

Entries listed so far whose gene name starts with K or k (3):
Gene	reagent	robust z-score, replicate 1	robust z-score, replicate 2	robust z-score, replicate 3
KATNAL2	1	-0.392	-0.192	-0.372
KCNH4	1	-0.693	-1.52	-0.131
KCNJ14	1	0.123	-0.00479	0.565
